From paper PMC9681059
Where a chain is given by its changes, count along the chain named. No constants are given. Whether binding was seen depends on the method and setting. In cells and extracts the contact can be indirect. Some binding calls cover weakened binding; strength is not graded here. Sequences can lack the tags named with a protein. Values belong to the binder of their own block, whether it stands above or below them.

Protein sequences, listed by entry. Tags and fused reporters are not part of them. Lines headed by an entry give the natural chain unless they say otherwise; changes in a name come on top. Chains listed by the source or under a name are the forms on record and can include a tag or linker.
Cerulean-tagged β2B-subunit (WT) (Q08289, form named): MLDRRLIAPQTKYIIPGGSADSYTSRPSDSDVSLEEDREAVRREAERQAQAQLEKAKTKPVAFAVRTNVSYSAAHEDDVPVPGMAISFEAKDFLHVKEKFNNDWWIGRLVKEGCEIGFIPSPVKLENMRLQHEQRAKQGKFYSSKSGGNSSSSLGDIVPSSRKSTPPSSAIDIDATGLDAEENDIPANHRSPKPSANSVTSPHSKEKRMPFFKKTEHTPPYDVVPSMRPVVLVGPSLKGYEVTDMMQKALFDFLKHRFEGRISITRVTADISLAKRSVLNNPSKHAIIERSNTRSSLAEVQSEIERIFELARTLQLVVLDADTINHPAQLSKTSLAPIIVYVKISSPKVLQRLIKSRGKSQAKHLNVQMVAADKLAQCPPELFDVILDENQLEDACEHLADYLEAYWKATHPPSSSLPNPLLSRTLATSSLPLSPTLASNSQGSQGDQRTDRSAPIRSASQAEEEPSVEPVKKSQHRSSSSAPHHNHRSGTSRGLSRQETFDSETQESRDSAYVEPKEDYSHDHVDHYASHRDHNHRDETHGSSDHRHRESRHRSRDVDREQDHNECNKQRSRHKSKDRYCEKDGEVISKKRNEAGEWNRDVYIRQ

Biological target: Cerulean-tagged β2B-subunit (WT) (human) (UniProt Q08289)
Assay: FRET or BRET; flow cytometric FRET two-hybrid assay in transfected HEK293T cells, 1 d post-transfection, cycloheximide 100 μM for 2 h; Cer-tagged β2B variants with Ven-tagged partners; FRET efficiency against free Ven-tagged partner, 1:1 binding isotherm, Kd,EFF; in some samples calyculin A 100 nM for 10 min

- binding: binds
B1: Venus-tagged WT Rad (protein, UniProt O88667 1-308)
chain: MTLNGGSGASGSRGAGGRERDRRRGSTPWGPAPPLHRRSMPVDERDLQAALAPGSLATTAAGTRTQGQRLDWPEGSSDSLSSGGSGSEEGVYKVLLLGAPGVGKSALARIFGGIEDGPEAEAAGHTYDRSITVDGEEASLLVYDIWEEDGGCWLPGHCMAMGDAYVIVYSITDKGSFEKASELRVQLRRARQTDDVPIILVGNKSDLVRSREVSVDEGRACAVVFDCKFIETSAALHHNVQALFEGVVRQIRLRRDSKEDNARRQAGTRRRESLGKKAKRFLGRIVARNSRKMAFRAKSKSCHDLSVL

- binding: binds
B2: Venus-tagged 4SA-Rad (protein, UniProt O88667 1-308)
chain: B1 chain with S26A, S39A, S273A, S301A
